This passage reports log2 fold change results from the supplement of paper PMC12819154, “High-throughput peptide-centric local stability assay extends protein–ligand identification to membrane proteins, tissues and bacteria” (Nature Structural & Molecular Biology, 2025).

Amino acid sequences for entries named in this document (tags omitted). A change or cut given only in a name is not applied to a line headed by its entry.
UniProt Q03169: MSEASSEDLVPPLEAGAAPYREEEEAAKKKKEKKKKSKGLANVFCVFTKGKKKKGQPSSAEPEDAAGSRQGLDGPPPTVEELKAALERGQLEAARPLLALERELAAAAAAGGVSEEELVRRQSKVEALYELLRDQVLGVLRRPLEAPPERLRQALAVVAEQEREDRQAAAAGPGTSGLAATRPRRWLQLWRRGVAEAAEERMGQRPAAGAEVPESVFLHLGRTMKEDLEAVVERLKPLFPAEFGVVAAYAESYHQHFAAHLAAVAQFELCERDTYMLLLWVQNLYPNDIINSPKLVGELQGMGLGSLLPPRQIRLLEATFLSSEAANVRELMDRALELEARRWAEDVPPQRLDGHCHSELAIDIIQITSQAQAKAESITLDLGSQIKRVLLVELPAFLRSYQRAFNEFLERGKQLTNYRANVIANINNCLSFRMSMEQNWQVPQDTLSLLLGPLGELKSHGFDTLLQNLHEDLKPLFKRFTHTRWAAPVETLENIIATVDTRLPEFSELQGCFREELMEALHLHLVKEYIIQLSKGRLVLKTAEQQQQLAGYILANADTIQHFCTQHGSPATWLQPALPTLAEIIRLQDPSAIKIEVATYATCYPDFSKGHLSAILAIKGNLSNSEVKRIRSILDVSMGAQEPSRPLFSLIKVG
UniProt Q02818: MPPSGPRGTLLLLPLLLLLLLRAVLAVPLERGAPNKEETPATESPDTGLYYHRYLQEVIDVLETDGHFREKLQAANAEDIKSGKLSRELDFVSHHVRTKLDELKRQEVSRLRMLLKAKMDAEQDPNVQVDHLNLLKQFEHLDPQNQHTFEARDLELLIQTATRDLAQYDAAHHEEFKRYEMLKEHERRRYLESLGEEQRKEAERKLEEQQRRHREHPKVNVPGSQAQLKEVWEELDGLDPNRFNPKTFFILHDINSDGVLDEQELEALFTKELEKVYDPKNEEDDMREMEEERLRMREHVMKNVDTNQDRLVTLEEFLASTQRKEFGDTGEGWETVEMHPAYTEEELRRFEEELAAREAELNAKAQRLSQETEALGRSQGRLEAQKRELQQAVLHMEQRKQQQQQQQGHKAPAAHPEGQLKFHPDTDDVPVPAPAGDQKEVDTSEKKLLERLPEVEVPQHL
UniProt Q05D60: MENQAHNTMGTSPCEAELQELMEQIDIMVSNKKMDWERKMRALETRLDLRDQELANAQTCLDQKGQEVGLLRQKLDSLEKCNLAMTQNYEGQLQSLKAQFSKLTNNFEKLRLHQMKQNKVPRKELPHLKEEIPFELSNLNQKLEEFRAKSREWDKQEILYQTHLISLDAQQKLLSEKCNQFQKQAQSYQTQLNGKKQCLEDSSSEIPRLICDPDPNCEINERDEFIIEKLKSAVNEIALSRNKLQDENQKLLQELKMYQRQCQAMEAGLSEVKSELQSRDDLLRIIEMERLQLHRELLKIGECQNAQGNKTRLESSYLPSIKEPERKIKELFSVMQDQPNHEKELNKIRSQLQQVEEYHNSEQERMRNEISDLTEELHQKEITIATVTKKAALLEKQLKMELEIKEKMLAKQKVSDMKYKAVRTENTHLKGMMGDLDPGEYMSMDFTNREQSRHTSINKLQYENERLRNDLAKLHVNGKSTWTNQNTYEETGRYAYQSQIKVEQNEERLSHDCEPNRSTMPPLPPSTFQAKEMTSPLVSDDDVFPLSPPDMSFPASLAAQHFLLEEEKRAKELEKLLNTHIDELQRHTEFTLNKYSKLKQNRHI
UniProt Q03936: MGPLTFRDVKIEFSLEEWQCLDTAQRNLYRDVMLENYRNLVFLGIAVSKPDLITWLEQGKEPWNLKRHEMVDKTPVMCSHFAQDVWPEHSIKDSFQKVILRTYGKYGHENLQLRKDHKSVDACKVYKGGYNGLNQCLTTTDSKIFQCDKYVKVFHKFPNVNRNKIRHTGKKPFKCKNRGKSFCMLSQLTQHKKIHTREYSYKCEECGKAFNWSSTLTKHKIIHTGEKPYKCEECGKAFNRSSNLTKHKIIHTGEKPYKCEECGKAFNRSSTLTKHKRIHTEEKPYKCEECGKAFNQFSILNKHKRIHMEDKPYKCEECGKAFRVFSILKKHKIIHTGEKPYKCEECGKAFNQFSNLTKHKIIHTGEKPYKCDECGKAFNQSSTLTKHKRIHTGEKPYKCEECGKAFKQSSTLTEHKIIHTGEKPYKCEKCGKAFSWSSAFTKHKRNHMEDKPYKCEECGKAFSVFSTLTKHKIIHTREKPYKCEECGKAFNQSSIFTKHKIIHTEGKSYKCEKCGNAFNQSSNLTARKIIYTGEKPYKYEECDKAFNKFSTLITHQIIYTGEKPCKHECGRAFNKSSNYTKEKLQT
UniProt Q08AG7, whole entry: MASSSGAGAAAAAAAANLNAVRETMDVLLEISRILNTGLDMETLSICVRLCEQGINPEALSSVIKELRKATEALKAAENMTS
UniProt Q06413, whole entry: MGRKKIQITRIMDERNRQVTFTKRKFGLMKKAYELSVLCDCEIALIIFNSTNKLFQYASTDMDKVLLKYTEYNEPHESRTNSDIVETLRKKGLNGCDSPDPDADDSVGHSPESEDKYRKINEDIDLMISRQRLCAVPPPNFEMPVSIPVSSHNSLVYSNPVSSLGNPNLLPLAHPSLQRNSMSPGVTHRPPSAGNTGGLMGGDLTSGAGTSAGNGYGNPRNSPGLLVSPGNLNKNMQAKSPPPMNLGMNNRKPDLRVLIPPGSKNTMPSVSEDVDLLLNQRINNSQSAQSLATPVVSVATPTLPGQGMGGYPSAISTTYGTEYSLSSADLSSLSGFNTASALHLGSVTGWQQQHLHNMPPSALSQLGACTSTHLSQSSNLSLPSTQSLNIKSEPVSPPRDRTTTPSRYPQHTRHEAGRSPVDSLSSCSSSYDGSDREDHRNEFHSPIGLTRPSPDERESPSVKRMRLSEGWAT
UniProt Q10570: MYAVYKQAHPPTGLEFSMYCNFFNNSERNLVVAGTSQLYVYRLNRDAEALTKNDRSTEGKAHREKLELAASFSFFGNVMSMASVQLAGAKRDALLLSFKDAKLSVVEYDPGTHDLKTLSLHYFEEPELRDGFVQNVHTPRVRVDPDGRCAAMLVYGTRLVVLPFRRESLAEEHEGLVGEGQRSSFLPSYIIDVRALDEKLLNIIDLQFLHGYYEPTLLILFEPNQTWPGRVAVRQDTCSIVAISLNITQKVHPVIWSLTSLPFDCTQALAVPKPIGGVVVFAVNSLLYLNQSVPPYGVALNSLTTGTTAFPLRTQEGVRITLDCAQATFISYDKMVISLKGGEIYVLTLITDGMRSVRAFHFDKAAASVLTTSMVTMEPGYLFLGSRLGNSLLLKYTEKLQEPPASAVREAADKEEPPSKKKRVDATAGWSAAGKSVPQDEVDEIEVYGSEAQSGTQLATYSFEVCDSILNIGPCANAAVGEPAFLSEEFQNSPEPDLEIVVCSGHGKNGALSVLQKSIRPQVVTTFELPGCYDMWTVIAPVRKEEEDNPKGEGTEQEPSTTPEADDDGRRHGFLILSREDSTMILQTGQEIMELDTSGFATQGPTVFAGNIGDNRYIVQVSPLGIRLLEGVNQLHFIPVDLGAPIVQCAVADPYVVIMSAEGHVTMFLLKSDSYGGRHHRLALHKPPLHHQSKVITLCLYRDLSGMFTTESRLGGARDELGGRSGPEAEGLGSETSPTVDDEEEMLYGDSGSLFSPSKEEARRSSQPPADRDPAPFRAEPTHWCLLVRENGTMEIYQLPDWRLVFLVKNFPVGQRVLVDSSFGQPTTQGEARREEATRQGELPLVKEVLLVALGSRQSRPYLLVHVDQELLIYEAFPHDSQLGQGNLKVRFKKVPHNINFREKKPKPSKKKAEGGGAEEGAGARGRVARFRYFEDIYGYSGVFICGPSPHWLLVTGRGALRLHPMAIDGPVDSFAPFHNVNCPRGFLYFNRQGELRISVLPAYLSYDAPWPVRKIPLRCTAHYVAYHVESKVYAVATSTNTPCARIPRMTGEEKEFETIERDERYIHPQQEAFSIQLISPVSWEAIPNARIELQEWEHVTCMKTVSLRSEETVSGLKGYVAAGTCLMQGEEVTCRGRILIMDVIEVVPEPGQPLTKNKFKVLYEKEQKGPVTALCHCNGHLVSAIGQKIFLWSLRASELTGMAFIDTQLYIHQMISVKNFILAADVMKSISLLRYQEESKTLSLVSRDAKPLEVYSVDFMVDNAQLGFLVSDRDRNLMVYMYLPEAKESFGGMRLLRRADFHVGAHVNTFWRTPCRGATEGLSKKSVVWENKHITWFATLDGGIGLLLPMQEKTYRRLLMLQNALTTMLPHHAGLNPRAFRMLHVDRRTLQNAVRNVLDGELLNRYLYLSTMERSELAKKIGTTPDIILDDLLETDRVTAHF
UniProt Q10567: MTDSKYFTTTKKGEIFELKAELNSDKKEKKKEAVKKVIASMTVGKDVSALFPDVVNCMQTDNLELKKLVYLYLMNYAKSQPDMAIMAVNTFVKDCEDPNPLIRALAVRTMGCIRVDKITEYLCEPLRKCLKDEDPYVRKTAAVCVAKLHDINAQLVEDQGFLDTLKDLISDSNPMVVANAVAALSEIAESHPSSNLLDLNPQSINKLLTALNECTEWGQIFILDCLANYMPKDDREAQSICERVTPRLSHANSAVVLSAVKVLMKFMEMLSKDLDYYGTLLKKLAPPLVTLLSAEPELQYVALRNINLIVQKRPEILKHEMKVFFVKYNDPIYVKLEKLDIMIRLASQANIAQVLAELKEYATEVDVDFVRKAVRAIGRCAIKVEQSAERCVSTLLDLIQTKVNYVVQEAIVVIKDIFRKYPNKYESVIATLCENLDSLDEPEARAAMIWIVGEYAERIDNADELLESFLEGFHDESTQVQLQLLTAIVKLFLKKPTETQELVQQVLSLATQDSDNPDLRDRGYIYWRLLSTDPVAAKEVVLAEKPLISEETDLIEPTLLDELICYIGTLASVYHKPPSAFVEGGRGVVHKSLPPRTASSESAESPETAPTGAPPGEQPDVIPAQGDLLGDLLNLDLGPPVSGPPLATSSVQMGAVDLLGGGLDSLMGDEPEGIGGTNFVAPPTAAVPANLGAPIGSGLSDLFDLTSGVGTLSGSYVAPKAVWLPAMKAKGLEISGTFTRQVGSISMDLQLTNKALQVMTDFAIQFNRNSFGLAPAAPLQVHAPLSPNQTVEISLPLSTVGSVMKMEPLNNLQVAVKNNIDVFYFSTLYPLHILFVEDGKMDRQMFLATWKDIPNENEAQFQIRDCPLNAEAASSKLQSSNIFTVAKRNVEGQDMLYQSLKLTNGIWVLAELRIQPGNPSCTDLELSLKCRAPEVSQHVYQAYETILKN
UniProt Q07960: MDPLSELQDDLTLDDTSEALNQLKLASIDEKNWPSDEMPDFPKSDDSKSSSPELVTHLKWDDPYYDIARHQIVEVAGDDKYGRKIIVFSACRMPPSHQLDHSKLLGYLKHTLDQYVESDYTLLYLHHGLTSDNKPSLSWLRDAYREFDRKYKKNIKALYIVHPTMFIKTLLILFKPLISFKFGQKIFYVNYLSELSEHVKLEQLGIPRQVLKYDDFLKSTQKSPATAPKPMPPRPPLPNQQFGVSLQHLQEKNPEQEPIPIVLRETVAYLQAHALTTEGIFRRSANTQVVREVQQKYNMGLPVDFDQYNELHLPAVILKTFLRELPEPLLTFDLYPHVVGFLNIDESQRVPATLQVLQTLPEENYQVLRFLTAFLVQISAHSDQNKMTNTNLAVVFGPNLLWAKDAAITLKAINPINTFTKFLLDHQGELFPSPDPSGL

The list shows a part of the results. Most entries show no effect beyond the scatter of the controls.

Compound in this assay: CN[C@@H]1C[C@H]2O[C@@](C)([C@@H]1OC)n1c3ccccc3c3c4c(c5c6ccccc6n2c5c31)C(=O)NC4 [staurosporine]
In words: log2 fold change of tryptic peptide abundance, ligand vs vehicle (limited proteolysis) (log2 ratio); higher = more trypsin-susceptible (destabilized). To be noted: ligand concentration: 20 uM; sample: K562 cleared lysate; digestion: 4 min, 22 C (HT-PELSA RT4min, Orbitrap Astral).
For “HTD2 (peptide sequence: KTVMEGWVK, peptide start residue: 151) (UniProt P86397)”, the log2 fold change stood at 0.191.
To “TNFAIP2 (peptide sequence: KGQPSSAEPEDAAGSR, peptide start residue: 54) (UniProt Q03169)” belongs -0.321; to “NUCB1 (peptide sequence: KLEEQQR, peptide start residue: 205) (UniProt Q02818)”, 0.256; to “DEUP1 (peptide sequence: IGECQNAQGNK, peptide start residue: 300) (UniProt Q05D60)”, -0.397.
As to “ZNF92 (peptide sequence: CEKCGNAFNQSSNLTAR, peptide start residue: 511) (UniProt Q03936)”, the log2 fold change came out at 0.206.
Then “UniProt Q00341 (peptide sequence: TIIGQKGER, peptide start residue: 521)”, with 0.38.
For “C13ORF37 (peptide sequence: ILNTGLDMETLSICVR, peptide start residue: 34) (UniProt Q08AG7)”, the log2 fold change was -0.213.
“MEF2C (peptide sequence: TNSDIVETLRK, peptide start residue: 80) (UniProt Q06413)”: the log2 fold change was found to be 0.559.
With “CPSF1 (peptide sequence: YIVQVSPLGIR, peptide start residue: 617) (UniProt Q10570)”, the log2 fold change is -0.671.
To “AP1B1 (peptide sequence: KGEIFELK, peptide start residue: 12) (UniProt Q10567)” belongs 0.227; to “ARHGAP1 (peptide sequence: ETVAYLQAHALTTEGIFRR, peptide start residue: 265) (UniProt Q07960)”, 0.661.
